This is one part of the list.
Columns and labels:
Experiment in all cases: log2 fold change, soluble protein after heating vs DMSO (PISA); higher = thermal stabilisation; K562 lysate, 10 uM; active = over 0.2 and 3.5 SD of the protein, either way, in both replicates (recomputed)
erlotinib = compound: C#Cc1cccc(Nc2ncnc3cc(OCCOC)c(OCCOC)cc23)c1 [erlotinib]
In short: (§1)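 K562 pellets were dounce-homogenised in PBS pH 7.4 with 1 mM MgCl2, and the crude extract at 1 mg/mL protein was treated with 10 μM compound for 30 min. Aliquots were heated for 3 min across 48°C-58°C, pooled, and brought to 0.5% NP-40 at 4°C; soluble protein was the supernatant after 21,000xg for 90 min. Soluble protein was quantified by TMTpro 16plex LC-MS/MS with channel sums equalised, and reported as log2 fold change in thermal stability against DMSO controls, with values from duplicates.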

By UniProt entry, the sequences of proteins in these tests, tags left out. Where a name states a change or a piece, a line headed by the entry shows the natural chain unless it says otherwise.
UniProt Q15545, whole entry, looked up: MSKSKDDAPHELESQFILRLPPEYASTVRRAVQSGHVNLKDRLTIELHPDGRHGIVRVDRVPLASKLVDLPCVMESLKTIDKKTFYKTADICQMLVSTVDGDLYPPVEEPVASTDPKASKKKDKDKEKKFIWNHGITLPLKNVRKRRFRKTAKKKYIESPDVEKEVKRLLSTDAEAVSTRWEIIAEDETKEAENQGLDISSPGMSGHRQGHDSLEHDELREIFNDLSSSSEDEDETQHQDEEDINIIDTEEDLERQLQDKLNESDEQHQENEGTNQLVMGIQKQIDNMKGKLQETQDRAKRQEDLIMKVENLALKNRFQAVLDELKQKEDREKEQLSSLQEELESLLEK
UniProt Q13488, whole entry, looked up: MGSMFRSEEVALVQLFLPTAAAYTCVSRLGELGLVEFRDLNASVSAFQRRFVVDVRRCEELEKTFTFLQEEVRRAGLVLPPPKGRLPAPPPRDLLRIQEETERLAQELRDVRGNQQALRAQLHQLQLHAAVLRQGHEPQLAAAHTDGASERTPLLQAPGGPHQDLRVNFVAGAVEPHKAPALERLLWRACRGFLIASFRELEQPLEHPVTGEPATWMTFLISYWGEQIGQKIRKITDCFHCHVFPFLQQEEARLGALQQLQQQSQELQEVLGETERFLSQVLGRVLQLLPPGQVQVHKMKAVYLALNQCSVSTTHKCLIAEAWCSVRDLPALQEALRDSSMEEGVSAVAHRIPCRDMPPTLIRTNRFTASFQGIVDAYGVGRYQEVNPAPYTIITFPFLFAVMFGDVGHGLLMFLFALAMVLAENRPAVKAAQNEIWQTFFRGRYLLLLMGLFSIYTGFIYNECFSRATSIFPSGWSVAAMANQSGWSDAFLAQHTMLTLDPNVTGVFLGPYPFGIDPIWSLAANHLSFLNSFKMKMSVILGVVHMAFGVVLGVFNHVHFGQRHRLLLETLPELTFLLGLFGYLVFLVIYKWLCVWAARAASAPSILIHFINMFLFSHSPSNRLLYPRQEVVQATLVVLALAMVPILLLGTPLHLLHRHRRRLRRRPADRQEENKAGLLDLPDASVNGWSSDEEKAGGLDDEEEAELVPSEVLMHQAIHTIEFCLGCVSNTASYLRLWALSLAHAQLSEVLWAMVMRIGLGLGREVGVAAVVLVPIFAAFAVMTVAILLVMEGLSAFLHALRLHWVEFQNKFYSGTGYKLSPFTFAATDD
UniProt O14907: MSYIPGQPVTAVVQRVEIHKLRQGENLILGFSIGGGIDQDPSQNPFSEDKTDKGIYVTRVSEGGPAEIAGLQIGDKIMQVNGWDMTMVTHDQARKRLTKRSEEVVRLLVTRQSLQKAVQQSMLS
UniProt P62380: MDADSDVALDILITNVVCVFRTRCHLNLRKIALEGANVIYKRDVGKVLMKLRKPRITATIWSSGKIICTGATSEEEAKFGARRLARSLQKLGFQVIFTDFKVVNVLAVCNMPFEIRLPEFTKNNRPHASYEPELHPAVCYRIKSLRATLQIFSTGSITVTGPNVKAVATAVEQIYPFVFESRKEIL
UniProt Q96BZ9: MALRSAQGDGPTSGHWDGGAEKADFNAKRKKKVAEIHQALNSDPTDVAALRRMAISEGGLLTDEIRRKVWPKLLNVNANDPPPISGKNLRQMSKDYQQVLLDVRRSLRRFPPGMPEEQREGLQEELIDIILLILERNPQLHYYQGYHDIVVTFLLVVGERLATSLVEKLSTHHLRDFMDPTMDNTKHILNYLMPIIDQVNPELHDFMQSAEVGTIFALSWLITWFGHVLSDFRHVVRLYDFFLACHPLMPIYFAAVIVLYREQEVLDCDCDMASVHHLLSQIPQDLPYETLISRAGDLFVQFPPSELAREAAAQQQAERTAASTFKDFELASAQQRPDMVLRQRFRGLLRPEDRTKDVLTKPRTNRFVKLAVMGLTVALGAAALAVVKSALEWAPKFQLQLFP
UniProt Q9UPU7: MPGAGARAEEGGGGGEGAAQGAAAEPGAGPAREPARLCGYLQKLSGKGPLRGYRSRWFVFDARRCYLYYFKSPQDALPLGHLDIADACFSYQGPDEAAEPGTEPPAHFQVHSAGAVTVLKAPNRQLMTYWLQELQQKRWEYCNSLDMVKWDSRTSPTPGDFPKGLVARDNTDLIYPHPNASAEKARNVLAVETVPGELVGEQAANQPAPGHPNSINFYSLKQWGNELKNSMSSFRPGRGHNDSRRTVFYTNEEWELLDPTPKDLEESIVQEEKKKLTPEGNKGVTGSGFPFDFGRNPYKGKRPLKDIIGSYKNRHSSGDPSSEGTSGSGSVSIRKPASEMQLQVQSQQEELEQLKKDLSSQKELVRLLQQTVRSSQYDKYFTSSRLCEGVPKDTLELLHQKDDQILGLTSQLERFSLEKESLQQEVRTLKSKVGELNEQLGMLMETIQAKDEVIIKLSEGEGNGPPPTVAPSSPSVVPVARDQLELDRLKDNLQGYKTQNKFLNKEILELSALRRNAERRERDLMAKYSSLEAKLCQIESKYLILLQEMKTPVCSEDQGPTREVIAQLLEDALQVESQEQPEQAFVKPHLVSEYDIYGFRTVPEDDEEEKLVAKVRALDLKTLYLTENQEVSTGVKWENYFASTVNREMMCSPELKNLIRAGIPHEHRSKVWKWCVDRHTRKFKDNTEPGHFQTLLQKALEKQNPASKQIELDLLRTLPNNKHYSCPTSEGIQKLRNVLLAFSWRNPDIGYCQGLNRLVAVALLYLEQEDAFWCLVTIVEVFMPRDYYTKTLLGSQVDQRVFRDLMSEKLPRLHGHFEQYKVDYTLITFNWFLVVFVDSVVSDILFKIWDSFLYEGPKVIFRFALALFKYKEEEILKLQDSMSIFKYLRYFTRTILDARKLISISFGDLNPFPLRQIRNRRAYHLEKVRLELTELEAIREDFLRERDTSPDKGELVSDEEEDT
UniProt P01137, whole entry, looked up: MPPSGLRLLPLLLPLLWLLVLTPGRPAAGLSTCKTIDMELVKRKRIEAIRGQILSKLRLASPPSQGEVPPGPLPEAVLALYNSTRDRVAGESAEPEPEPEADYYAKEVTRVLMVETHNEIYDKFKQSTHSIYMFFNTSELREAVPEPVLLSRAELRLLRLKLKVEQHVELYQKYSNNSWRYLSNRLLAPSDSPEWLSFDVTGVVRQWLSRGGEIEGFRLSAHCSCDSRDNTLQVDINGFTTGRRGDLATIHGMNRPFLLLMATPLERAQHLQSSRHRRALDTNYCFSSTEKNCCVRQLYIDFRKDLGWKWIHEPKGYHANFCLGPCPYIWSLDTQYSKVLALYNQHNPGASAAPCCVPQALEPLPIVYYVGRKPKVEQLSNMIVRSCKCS
UniProt Q12800: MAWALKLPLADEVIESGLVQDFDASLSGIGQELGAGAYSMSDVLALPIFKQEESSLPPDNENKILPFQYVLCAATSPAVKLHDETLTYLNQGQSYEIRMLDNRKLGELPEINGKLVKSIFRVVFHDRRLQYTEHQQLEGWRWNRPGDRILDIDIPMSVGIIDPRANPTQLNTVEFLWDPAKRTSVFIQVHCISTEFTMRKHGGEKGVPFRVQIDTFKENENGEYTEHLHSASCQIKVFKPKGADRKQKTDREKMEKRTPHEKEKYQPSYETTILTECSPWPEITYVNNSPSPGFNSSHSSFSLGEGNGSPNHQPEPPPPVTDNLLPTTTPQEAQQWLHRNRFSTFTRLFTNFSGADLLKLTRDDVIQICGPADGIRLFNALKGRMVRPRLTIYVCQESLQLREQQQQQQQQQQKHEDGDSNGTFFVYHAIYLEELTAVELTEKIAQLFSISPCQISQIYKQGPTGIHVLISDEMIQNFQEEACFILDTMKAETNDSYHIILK
UniProt P37837: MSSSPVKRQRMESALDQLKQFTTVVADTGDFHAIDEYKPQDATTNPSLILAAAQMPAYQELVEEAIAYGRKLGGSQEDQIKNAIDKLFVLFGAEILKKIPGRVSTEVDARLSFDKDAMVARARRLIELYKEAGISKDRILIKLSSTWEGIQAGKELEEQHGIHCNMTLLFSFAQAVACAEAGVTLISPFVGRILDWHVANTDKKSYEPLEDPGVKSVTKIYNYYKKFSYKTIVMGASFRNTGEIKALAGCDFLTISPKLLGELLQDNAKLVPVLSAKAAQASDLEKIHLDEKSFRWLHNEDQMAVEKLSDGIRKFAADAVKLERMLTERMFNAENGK
UniProt Q66K14, whole entry, looked up: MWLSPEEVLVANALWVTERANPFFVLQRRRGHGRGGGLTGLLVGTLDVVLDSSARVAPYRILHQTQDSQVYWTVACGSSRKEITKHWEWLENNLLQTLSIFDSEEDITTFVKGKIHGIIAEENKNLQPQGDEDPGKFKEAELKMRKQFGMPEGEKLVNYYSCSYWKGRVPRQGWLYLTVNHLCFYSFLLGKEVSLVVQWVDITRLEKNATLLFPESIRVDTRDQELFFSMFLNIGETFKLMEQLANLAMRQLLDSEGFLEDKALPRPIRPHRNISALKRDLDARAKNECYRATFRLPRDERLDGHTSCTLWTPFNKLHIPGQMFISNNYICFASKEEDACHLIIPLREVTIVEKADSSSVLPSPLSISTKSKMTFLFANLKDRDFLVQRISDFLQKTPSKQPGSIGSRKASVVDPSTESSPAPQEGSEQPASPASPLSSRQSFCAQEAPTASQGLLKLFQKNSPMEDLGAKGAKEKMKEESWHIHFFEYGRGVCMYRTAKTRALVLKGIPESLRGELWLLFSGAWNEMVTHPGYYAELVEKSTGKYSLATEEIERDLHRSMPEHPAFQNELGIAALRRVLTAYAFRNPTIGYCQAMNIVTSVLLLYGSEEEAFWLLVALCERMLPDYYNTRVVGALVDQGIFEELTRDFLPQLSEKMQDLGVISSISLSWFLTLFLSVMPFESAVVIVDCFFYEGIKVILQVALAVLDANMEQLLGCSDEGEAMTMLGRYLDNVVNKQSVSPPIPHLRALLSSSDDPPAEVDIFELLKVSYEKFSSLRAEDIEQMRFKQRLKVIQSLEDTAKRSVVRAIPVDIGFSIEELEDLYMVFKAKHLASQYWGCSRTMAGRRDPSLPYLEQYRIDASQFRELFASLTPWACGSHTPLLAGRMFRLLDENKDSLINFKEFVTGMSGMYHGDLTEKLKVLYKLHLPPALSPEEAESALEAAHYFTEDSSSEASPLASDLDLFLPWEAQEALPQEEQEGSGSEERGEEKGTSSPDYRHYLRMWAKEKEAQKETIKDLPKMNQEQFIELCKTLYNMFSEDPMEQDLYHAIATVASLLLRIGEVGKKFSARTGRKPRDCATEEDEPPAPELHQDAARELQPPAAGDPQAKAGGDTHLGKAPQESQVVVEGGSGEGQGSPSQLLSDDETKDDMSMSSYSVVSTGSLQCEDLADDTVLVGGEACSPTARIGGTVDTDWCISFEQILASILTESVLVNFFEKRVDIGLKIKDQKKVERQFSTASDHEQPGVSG
UniProt Q9BT92: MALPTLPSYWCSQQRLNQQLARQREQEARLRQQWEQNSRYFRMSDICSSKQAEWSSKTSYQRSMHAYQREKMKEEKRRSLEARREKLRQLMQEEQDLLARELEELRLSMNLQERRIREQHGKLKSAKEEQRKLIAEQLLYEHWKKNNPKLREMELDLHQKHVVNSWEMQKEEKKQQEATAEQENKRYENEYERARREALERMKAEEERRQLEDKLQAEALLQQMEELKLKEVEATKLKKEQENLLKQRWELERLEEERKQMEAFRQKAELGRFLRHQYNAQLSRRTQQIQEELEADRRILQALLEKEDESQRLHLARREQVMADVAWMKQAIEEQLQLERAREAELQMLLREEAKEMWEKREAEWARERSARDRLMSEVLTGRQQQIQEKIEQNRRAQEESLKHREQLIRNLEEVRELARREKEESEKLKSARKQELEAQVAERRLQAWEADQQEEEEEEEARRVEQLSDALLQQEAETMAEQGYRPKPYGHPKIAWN
UniProt Q5JUR7: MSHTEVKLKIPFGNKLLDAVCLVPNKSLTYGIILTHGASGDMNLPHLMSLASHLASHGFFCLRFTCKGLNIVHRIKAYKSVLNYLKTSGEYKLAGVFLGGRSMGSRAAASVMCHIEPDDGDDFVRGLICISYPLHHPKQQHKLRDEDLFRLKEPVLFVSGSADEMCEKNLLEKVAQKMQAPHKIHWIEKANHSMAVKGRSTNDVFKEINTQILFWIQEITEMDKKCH
UniProt Q9NUJ3: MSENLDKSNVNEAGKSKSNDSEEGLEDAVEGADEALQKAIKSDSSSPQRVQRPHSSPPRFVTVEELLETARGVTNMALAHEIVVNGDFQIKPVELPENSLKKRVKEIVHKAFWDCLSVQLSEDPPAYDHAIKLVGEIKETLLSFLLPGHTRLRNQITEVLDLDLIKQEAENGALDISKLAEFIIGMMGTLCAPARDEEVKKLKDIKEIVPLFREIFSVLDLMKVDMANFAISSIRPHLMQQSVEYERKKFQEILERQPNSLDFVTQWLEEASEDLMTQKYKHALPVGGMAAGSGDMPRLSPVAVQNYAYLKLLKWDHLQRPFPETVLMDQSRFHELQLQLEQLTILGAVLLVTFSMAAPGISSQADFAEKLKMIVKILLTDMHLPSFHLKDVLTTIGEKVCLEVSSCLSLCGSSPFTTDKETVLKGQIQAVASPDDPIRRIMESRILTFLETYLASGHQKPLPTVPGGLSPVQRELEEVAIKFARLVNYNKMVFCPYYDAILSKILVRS

[1] = compound: C/C(=N\NC(=O)C1=CC(=CC=C1)S(=O)(=O)N2CCOCC2)/C3=C(C=CC(=C3)Cl)O
In short: as §1

[2] = compound: C1=CC(=CC=C1C2=NC3=C(N2)C=C(C=C3)C(=O)N)OC4=CC=C(C=C4)Cl
In short: as §1

[3] = compound: C1=CC2=C(C=CC(=C2)/C=C\3/C(=O)NC(=NCC4=CC=CS4)S3)N=C1
In short: as §1

[4] = compound: C1=CC2=NC=CN=C2C=C1/C=C/3\C(=O)NC(=O)S3
In short: as §1

[5] = compound: C1=CC=C(C=C1)C2=NC(=C(N2)C3=CC=NC=C3)C4=CC(=C(C=C4)Cl)O
In short: as §1

[6] = compound: C1=CC=C2C(=C1)C3=NNC4=CC=CC(=C43)C2=O
In short: as §1

[7] = compound: C1CCN(C1)C(=O)NC2=CC=CC(=C2)NC3=NC=C(C(=N3)NCCC4=CN=CN4)Br
In short: as §1

[8] = compound: C1CN(CCC1(CC2=CC=C(C=C2)Cl)N)C3=NC=NC4=C3C=CN4
In short: as §1

IRAK-1-4 Inhibitor I = compound: C1COCCN1CCN2C3=CC=CC=C3N=C2NC(=O)C4=CC(=CC=C4)[N+](=O)[O-] [IRAK-1-4 Inhibitor I]
In short: as §1

Measured: log2 fold change

TAF7 (UniProt Q15545)
inactive: erlotinib -0.039 | [1] -0.01 | [2] -0.027 | [3] 0.01 | [4] -0.008 | [5] 0.001 | [6] 0.024 | [7] -0.022 | [8] -0.026 | IRAK-1-4 Inhibitor I -0.005

TCIRG1 (UniProt Q13488)
inactive: erlotinib 0.018 | [1] 0.145 | [2] 0.145 | [3] 0.028 | [4] -0.028 | [5] 0.012 | [6] -0.008 | [7] -0.027 | [8] -0.145 | IRAK-1-4 Inhibitor I -0.033

TECR (UniProt Q9NZ01)
inactive: erlotinib 0.024 | [1] -0.029 | [2] -0.113 | [3] 0.019 | [4] 0.083 | [5] -0.013 | [6] -0.066 | [7] -0.008 | [8] 0.028 | IRAK-1-4 Inhibitor I 0.038

Fetched one by one from the list above, 2 records:
TECR (UniProt Q9NZ01)
inactive: erlotinib 0.024 | [1] -0.029 | [2] -0.113 | [3] 0.019 | [4] 0.083 | [5] -0.013 | [6] -0.066 | [7] -0.008 | [8] 0.028 | IRAK-1-4 Inhibitor I 0.038

TCIRG1 (UniProt Q13488)
inactive: erlotinib 0.018 | [1] 0.145 | [2] 0.145 | [3] 0.028 | [4] -0.028 | [5] 0.012 | [6] -0.008 | [7] -0.027 | [8] -0.145 | IRAK-1-4 Inhibitor I -0.033

The listing continues.

TAX1BP3 (UniProt O14907)
inactive: erlotinib -0.052 | [1] -0.213 | [2] -0.048 | [3] 0.136 | [4] -0.049 | [5] -0.128 | [6] -0.291 | [7] -0.06 | [8] -0.109 | IRAK-1-4 Inhibitor I -0.165

TBC1D24 (UniProt Q9ULP9)
inactive: erlotinib -0.039 | [1] -0.063 | [2] 0.013 | [3] -0.005 | [4] 0.025 | [5] 0.013 | [6] -0.055 | [7] 0.001 | [8] 0.002 | IRAK-1-4 Inhibitor I 0.019

TEX10 (UniProt Q9NXF1)
inactive: erlotinib 0.027 | [1] -0.022 | [2] 0.17 | [3] -0.004 | [4] 0.053 | [5] 0.019 | [6] -0.025 | [7] 0.005 | [8] -0.039 | IRAK-1-4 Inhibitor I 0.072

TBPL1 (UniProt P62380)
inactive: erlotinib -0.048 | [1] -0.124 | [2] -0.036 | [3] -0.028 | [4] -0.015 | [5] 0.001 | [6] 0.057 | [7] 0.114 | [8] -0.004 | IRAK-1-4 Inhibitor I -0.017

TCOF1 isoform 4 (UniProt Q13428)
inactive: erlotinib 0 | [1] 0.026 | [2] 0.034 | [3] -0.013 | [4] -0.069 | [5] 0.012 | [6] 0 | [7] 0.001 | [8] 0.003 | IRAK-1-4 Inhibitor I 0.01

TBC1D20 isoform 3 (UniProt Q96BZ9)
inactive: erlotinib -0.073 | [1] 0.142 | [2] -0.113 | [3] 0.043 | [4] 0.117 | [5] -0.038 | [6] -0.018 | [7] 0.033 | [8] 0.023 | IRAK-1-4 Inhibitor I 0.132

TAOK3 (UniProt Q9H2K8)
inactive: erlotinib -0.035 | [1] -0.022 | [2] 0 | [3] 0.028 | [4] 0.067 | [5] 0.01 | [6] 0.051 | [7] 0.092 | [8] 0.022 | IRAK-1-4 Inhibitor I 0.001

TDRD3 isoform 3 (UniProt Q9H7E2)
inactive: erlotinib 0.051 | [1] -0.029 | [2] -0.019 | [3] 0.086 | [4] 0.005 | [5] 0.257 | [6] -0.085 | [7] -0.059 | [8] 0 | IRAK-1-4 Inhibitor I 0.051

TBC1D2B (UniProt Q9UPU7)
inactive: erlotinib -0.005 | [1] -0.028 | [2] 0.098 | [3] 0.03 | [4] -0.053 | [5] 0.042 | [6] -0.111 | [7] -0.031 | [8] -0.024 | IRAK-1-4 Inhibitor I -0.075

TENT5C (UniProt Q5VWP2)
inactive: erlotinib -0.01 | [1] -0.11 | [2] -0.021 | [3] -0.036 | [4] -0.078 | [5] 0.009 | [6] -0.063 | [7] -0.004 | [8] 0.011 | IRAK-1-4 Inhibitor I 0.015

TDRKH (UniProt Q9Y2W6)
inactive: erlotinib -0.067 | [1] 0.023 | [2] -0.017 | [3] -0.018 | [4] -0.065 | [5] 0.02 | [6] -0.086 | [7] -0.011 | [8] -0.022 | IRAK-1-4 Inhibitor I 0.047

TBC1D23 (UniProt Q9NUY8)
inactive: erlotinib 0.003 | [1] -0.01 | [2] 0.017 | [3] 0.022 | [4] -0.015 | [5] 0.011 | [6] -0.018 | [7] -0.018 | [8] -0.001 | IRAK-1-4 Inhibitor I 0

TGFB1 (UniProt P01137)
inactive: erlotinib -0.024 | [1] 0.014 | [2] 0.035 | [3] 0 | [4] -0.005 | [5] -0.017 | [6] 0.013 | [7] -0.008 | [8] 0.025 | IRAK-1-4 Inhibitor I -0.009

TFCP2 (UniProt Q12800)
inactive: erlotinib -0.035 | [1] 0.08 | [2] -0.115 | [3] 0.01 | [4] -0.042 | [5] -0.007 | [6] -0.02 | [7] -0.038 | [8] -0.044 | IRAK-1-4 Inhibitor I 0.035

TBK1 (UniProt Q9UHD2)
inactive: erlotinib -0.005 | [1] -0.066 | [2] -0.03 | [3] 0.006 | [4] -0.067 | [5] 0.023 | [6] 0.238 | [7] 0.214 | [8] -0.047 | IRAK-1-4 Inhibitor I 0.082

TALDO1 (UniProt P37837)
inactive: erlotinib -0.043 | [1] 0.04 | [2] -0.054 | [3] -0.004 | [4] -0.001 | [5] 0 | [6] 0.011 | [7] 0.003 | [8] -0.017 | IRAK-1-4 Inhibitor I -0.024

TBC1D9B isoform 2 (UniProt Q66K14)
inactive: erlotinib 0.086 | [1] -0.011 | [2] 0.074 | [3] -0.061 | [4] -0.037 | [5] -0.015 | [6] -0.013 | [7] -0.031 | [8] 0.024 | IRAK-1-4 Inhibitor I 0.105

TBCE (UniProt Q15813)
inactive: erlotinib 0.02 | [1] 0.049 | [2] -0.016 | [3] 0.004 | [4] 0.014 | [5] 0.001 | [6] -0.07 | [7] -0.027 | [8] 0.038 | IRAK-1-4 Inhibitor I -0.002

TCHP (UniProt Q9BT92)
inactive: erlotinib 0 | [1] 0.009 | [2] -0.072 | [3] -0.121 | [4] -0.009 | [5] -0.098 | [6] 0.086 | [7] -0.036 | [8] -0.003 | IRAK-1-4 Inhibitor I -0.038

TEX30 (UniProt Q5JUR7)
inactive: erlotinib -0.012 | [1] -0.106 | [2] -0.112 | [3] 0.03 | [4] 0.046 | [5] -0.009 | [6] -0.065 | [7] -0.034 | [8] -0.007 | IRAK-1-4 Inhibitor I -0.031

TAF8 isoform 2 (UniProt Q7Z7C8)
inactive: erlotinib 0 | [1] -0.033 | [2] 0.006 | [3] -0.009 | [4] -0.031 | [5] 0.028 | [6] 0.014 | [7] -0.124 | [8] 0.047 | IRAK-1-4 Inhibitor I -0.016

TERF2IP (UniProt Q9NYB0)
inactive: erlotinib -0.003 | [1] 0.025 | [2] 0.03 | [3] -0.054 | [4] -0.023 | [5] -0.001 | [6] 0.005 | [7] 0.019 | [8] 0.029 | IRAK-1-4 Inhibitor I 0.009

TCP11L1 (UniProt Q9NUJ3)
inactive: erlotinib 0.082 | [1] 0.032 | [2] 0.032 | [3] 0.033 | [4] -0.053 | [5] 0.075 | [6] -0.069 | [7] -0.005 | [8] 0.094 | IRAK-1-4 Inhibitor I 0.001

TFR2 (UniProt Q9UP52)
inactive: erlotinib -0.019 | [1] -0.011 | [2] 0.032 | [3] -0.014 | [4] -0.022 | [5] 0.004 | [6] -0.011 | [7] -0.023 | [8] -0.022 | IRAK-1-4 Inhibitor I 0.023

TBCB (UniProt Q99426)
inactive: erlotinib -0.011 | [1] -0.026 | [2] 0.023 | [3] 0.01 | [4] -0.017 | [5] -0.014 | [6] -0.024 | [7] -0.002 | [8] 0.035 | IRAK-1-4 Inhibitor I 0.007

TBC1D14 (UniProt Q9P2M4)
inactive: erlotinib 0 | [1] -0.141 | [2] -0.01 | [3] 0.067 | [4] -0.069 | [5] -0.074 | [6] -0.052 | [7] -0.003 | [8] 0.108 | IRAK-1-4 Inhibitor I 0.053
